{"sequences": {"note": "Protein sequences, listed by entry. Tags and fused reporters are not part of them. Residues count along the entry.", "UniProt Q9BXM7, residues 78-581": "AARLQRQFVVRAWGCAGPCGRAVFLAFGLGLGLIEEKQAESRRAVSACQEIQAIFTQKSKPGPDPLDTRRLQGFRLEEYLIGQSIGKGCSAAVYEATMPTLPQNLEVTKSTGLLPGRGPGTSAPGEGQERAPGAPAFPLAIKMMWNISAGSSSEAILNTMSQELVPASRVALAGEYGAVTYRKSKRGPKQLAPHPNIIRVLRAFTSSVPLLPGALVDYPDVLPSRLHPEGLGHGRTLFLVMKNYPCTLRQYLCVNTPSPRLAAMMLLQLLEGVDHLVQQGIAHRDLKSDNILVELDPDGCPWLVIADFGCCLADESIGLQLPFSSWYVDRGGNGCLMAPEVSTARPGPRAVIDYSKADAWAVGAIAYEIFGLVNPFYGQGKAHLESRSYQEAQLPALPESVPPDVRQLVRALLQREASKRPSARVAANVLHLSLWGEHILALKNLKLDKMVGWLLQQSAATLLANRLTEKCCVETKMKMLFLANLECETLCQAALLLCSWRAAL"}, "source": "paper PMC11220046", "target": "T1, Macrophage migration inhibitory factor (human (endogenous in HK-2)) (UniProt P14174)", "T1 sequence": "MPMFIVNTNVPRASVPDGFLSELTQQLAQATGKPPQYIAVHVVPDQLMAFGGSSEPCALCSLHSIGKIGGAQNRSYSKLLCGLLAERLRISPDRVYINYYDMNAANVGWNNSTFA", "assay": "co-IP; antibody (or IgG) bound to protein A+G magnetic beads for 1 h at room temperature, lysate added overnight at 4 degrees Celsius, eluted in SDS loading buffer, immunoblot; HK-2 cell groups with LPS, ISO-1, OE-MIF or KD-MIF", "note": "No constants are given. Whether binding was seen depends on the method and setting. Binding seen in cells or lysates may run through a third protein. Some results given as binding are weak or reduced against the parent protein; the word gives no strength.", "data": [{"substance": "PTEN-induced putative kinase 1 (from UniProt Q9BXM7 78-581)", "values": [{"measurement": "binding", "value": "binds"}]}]}
